Results taken from the supplement of paper PMC10849652.
This is one part of the list.

Amino acid sequences for entries named in this document (tags omitted). A change or cut given only in a name is not applied to a line headed by its entry.
UniProt Q02447: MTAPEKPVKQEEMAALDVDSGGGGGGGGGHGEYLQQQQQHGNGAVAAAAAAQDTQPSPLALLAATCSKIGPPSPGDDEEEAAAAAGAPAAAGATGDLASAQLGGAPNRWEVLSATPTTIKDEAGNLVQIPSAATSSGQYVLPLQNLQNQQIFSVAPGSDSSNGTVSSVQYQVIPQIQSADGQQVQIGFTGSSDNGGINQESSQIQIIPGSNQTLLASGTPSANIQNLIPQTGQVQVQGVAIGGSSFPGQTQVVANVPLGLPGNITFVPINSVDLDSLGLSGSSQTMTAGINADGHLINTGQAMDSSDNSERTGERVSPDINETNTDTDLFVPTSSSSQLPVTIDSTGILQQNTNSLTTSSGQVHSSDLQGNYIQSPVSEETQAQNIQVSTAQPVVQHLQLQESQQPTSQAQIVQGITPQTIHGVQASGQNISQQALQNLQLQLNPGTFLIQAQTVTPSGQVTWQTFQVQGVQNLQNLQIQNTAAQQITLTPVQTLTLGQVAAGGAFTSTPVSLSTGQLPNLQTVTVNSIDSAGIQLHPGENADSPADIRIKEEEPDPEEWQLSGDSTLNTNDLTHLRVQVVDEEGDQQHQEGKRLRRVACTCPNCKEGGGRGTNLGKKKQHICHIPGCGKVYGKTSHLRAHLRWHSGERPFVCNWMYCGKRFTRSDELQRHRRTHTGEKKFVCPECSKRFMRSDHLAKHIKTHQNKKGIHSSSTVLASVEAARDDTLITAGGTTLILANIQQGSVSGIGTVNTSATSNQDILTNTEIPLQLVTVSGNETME
UniProt Q5SQN1: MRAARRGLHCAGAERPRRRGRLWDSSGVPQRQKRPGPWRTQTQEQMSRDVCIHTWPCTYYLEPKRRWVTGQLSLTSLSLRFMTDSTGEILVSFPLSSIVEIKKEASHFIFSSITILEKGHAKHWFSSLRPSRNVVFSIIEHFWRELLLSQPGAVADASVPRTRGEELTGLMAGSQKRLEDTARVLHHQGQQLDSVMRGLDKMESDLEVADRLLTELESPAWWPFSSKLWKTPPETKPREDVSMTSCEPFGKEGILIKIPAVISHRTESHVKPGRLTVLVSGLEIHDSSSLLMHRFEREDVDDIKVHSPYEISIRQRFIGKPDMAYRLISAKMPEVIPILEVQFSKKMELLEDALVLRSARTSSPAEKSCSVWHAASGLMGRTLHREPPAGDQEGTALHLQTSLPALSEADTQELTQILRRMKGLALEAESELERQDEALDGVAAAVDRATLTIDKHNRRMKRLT
UniProt Q15506: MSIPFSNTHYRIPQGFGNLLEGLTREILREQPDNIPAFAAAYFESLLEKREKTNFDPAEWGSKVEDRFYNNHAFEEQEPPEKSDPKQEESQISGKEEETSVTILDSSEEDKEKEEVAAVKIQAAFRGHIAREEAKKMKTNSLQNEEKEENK
UniProt O60271: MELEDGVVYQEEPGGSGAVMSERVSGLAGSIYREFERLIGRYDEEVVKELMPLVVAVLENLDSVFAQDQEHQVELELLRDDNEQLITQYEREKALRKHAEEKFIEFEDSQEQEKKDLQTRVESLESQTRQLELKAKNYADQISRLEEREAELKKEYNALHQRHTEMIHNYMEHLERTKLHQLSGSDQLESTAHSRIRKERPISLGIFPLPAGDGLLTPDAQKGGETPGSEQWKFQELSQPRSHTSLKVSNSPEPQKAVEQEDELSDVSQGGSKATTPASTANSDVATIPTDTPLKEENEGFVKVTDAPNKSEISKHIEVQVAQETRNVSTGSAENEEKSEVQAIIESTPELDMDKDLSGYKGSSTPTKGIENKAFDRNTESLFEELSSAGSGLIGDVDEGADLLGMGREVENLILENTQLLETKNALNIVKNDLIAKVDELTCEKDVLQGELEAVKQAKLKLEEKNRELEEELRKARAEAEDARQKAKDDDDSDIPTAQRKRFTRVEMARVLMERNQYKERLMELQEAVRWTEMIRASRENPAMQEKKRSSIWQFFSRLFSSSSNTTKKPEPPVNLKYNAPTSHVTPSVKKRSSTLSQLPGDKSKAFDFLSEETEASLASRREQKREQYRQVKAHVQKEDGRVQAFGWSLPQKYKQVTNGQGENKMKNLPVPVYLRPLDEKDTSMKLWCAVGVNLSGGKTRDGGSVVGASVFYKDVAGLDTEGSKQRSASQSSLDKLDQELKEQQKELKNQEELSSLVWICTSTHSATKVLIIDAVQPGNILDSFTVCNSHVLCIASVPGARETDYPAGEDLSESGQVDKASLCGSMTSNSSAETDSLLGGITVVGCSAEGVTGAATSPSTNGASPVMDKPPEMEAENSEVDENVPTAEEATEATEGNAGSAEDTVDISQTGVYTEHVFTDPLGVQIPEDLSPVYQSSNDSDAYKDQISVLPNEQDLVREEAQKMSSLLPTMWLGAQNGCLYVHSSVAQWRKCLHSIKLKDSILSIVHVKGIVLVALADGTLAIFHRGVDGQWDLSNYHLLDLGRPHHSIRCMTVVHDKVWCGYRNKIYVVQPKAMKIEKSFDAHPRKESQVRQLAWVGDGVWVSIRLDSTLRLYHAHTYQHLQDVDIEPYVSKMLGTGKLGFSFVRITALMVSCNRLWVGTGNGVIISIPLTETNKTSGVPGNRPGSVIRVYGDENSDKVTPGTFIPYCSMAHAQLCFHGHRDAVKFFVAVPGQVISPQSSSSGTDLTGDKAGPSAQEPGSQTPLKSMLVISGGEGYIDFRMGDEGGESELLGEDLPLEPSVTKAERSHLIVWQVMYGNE
UniProt Q8WV41: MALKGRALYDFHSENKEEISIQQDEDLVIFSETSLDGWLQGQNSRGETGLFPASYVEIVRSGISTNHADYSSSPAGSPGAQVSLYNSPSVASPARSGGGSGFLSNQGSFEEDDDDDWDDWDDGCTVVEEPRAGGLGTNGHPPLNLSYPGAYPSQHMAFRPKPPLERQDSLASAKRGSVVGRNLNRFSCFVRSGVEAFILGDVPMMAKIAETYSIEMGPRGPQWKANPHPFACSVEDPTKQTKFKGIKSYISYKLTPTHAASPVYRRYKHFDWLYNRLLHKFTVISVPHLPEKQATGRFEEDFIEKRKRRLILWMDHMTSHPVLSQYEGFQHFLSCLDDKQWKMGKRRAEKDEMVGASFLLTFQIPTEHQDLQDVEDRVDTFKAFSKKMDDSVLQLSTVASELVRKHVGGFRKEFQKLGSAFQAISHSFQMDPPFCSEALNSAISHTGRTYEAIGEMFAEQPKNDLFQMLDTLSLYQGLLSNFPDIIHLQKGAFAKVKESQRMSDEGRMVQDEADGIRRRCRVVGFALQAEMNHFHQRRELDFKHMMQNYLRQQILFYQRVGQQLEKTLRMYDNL
UniProt Q9NWM0: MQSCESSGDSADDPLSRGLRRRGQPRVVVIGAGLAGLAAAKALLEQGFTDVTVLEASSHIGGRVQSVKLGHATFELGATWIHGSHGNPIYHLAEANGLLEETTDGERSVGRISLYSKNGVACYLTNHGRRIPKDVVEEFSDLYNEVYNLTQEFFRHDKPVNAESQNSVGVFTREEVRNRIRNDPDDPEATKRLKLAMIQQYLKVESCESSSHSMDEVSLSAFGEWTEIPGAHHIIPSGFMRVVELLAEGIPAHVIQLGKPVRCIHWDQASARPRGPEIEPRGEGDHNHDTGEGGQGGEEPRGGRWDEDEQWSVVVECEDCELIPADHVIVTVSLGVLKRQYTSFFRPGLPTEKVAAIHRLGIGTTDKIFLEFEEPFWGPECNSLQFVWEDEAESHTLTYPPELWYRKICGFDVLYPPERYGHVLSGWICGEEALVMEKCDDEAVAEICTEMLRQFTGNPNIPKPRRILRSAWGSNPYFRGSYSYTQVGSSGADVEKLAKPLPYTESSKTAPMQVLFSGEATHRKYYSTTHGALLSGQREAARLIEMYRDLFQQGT
UniProt P58511: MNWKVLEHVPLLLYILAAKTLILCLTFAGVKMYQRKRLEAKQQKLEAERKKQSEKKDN
UniProt P35716: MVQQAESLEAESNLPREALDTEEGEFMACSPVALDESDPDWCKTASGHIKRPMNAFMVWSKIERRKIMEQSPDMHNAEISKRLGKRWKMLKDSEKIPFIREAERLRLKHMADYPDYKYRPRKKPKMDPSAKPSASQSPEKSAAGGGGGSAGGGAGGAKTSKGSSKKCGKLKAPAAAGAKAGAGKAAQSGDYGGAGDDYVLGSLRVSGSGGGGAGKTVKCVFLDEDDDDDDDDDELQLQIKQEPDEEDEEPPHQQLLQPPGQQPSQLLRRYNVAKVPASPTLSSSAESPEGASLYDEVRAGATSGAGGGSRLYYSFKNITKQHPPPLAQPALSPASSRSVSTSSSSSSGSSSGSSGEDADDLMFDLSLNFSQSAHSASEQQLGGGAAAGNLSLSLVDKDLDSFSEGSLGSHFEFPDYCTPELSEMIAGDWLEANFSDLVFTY
UniProt Q92966: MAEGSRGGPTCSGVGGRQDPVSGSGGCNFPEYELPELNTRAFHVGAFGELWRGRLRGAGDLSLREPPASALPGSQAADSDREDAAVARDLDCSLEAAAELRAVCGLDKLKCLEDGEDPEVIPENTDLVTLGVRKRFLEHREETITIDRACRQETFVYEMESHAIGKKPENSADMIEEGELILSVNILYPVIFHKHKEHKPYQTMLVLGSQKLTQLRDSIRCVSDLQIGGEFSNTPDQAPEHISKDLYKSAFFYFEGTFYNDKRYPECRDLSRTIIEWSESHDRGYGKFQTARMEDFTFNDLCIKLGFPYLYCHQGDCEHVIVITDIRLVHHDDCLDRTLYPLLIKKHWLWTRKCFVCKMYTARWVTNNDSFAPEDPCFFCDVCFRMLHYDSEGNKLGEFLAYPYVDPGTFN
UniProt Q96E16: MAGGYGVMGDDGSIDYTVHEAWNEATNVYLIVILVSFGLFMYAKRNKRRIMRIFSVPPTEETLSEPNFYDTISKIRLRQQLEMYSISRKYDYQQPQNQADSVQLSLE
UniProt P17405: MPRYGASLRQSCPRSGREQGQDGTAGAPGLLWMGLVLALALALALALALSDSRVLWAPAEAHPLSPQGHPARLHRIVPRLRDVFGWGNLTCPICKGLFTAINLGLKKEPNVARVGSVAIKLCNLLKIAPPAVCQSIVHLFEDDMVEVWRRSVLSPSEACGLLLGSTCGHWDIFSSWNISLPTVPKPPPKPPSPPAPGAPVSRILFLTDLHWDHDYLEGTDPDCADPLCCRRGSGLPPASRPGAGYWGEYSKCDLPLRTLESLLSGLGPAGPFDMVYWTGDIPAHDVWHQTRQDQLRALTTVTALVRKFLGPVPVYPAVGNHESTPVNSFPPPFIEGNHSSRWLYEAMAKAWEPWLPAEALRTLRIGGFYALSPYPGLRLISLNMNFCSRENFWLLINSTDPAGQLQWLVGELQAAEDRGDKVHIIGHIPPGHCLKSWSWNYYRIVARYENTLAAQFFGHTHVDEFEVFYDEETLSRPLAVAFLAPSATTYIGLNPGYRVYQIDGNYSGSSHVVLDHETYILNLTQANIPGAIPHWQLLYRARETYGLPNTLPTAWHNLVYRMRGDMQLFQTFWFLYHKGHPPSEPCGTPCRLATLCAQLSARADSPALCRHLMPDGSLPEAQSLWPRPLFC
UniProt P0DJ93: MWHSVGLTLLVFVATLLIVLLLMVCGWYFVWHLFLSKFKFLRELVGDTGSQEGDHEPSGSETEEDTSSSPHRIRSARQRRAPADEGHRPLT
UniProt Q9Y5W8: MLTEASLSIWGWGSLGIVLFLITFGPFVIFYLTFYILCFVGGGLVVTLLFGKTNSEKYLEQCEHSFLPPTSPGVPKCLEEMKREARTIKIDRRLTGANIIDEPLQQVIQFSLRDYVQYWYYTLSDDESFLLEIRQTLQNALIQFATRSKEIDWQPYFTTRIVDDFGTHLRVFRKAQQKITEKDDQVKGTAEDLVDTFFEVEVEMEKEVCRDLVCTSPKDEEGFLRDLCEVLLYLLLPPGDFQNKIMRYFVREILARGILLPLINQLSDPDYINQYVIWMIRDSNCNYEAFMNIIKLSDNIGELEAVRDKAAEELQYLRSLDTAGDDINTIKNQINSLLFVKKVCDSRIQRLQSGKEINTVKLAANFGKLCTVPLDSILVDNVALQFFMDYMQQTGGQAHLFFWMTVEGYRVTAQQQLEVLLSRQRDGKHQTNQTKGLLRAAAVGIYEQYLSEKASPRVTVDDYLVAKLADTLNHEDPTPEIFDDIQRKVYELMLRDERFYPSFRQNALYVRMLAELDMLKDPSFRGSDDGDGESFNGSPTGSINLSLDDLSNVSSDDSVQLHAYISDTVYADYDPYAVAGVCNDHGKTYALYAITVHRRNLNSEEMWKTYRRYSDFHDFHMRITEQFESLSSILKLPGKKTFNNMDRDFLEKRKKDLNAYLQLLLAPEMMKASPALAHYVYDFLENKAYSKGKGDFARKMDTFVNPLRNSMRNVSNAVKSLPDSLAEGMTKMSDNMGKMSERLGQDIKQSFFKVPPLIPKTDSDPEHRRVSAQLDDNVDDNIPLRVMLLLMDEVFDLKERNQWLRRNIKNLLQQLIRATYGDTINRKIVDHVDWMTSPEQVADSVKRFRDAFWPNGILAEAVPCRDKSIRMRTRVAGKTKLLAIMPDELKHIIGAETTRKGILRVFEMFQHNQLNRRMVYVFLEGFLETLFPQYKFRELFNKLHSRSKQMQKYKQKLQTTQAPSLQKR

Experiments:
Assay in all cases: log2 fold change, soluble protein after heating vs DMSO (PISA); higher = thermal stabilisation; K562 lysate, 10 uM; active = over 0.2 and 3.5 SD of the protein, either way, in both replicates (recomputed)
[1] = compound: CN1CC[C@H](c2c(O)cc(O)c3c(=O)cc(-c4ccccc4Cl)oc23)[C@H](O)C1 [alvocidib]
Summary of the method: (§1)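 K562 pellets were dounce-homogenised in PBS pH 7.4 with 1 mM MgCl2, and the crude extract at 1 mg/mL protein was treated with 10 μM compound for 30 min. Aliquots were heated for 3 min across 48°C-58°C, pooled, and brought to 0.5% NP-40 at 4°C; soluble protein was the supernatant after 21,000xg for 90 min. Soluble protein was quantified by TMTpro 16plex LC-MS/MS with channel sums equalised, and reported as log2 fold change in thermal stability against DMSO controls, with values from duplicates.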

[2] = compound: CN1CCc2c(c3ccccc3n2Cc2ccc(C(=O)NO)cc2)C1 [Tubastatin A]
Summary of the method: as §1

[3] = compound: CNC(=O)C1=CC=CC=C1NC2=NC(=NC=C2Cl)NC3=C(C=C(C=C3)N4CCOCC4)OC
Summary of the method: as §1

[4] = compound: CNc1nc(-c2ccc3c(N)n[nH]c3c2)cc(N2C[C@@H](C(=O)NC3CCCCC3)CC[C@H]2C)n1
Summary of the method: as §1

[5] = compound: COC(=O)N[C@@H](C)CNc1nccc(-c2cn(C(C)C)nc2-c2cc(Cl)cc(NS(C)(=O)=O)c2F)n1 [encorafenib]
Summary of the method: as §1

[6] = compound: COC(=O)[C@H](CCSC)NC(=O)C1=C(C=C(C=C1)NC[C@H](CS)N)C2=CC=CC=C2
Summary of the method: as §1

[7] = compound: COc1cc(Nc2ncc3c(n2)-c2ccc(Cl)cc2C(c2c(F)cccc2OC)=NC3)ccc1C(=O)O [alisertib]
Summary of the method: as §1

[8] = compound: COc1cc2nc(-c3cc(F)ccc3O)nc(N[C@@H]3CNC[C@H]3C(C)(C)O)c2cc1OC
Summary of the method: as §1

[9] = compound: COc1cc2ncnc(Nc3ccc(F)c(Cl)c3)c2cc1OCCCN1CCOCC1 [gefitinib]
Summary of the method: as §1

[10] = compound: CNC(=O)c1ccc(Nc2ncc(C(F)(F)F)c(NCc3nccnc3N(C)S(C)(=O)=O)n2)cc1 [defactinib]
Summary of the method: as §1

Measured: log2 fold change

SP3 (UniProt Q02447)
inactive: [1] 0.075 | [2] 0.054 | [3] 0.036 | [4] 0.136 | [5] 0.011 | [6] 0.003 | [7] 0.036 | [8] 0.022 | [9] -0.173

SMDT1 (UniProt Q9H4I9)
inactive: [1] -0.091 | [2] 0.042 | [3] -0.023 | [4] 0.046 | [8] 0.085

SOX7 isoform 2 (UniProt Q9BT81)
inactive: [1] 0.048 | [2] -0.259 | [3] 0.149 | [10] 0.102 | [7] -0.051 | [9] -0.082

SNX30 (UniProt Q5VWJ9)
inactive: [1] -0.012 | [2] -0.036 | [3] -0.004 | [4] -0.049 | [7] -0.06 | [8] 0.013 | [9] 0.1

SNX18 isoform 2 (UniProt Q96RF0)
inactive: [1] 0.048 | [3] -0.046 | [10] -0.04 | [5] -0.008 | [6] 0.066 | [7] -0.169 | [8] -0.181 | [9] -0.009

SMPD2 (UniProt O60906)
inactive: [1] -0.043 | [2] 0.088 | [3] -0.787 | [4] -0.034 | [5] 0.09 | [6] -0.22 | [8] -0.074

SNAP47 (UniProt Q5SQN1)
inactive: [1] -0.025 | [2] -0.048 | [3] 0.001 | [4] -0.001 | [5] -0.024 | [6] 0.128 | [7] 0.04 | [9] -0.005

SPA17 (UniProt Q15506)
inactive: [1] -0.208 | [2] 0.021 | [10] 0.056 | [4] 0.038 | [5] -0.007 | [6] -0.032 | [8] -0.038

SPAG9 isoform 4 (UniProt O60271)
inactive: [1] -0.176 | [2] 0.004 | [10] 0.039 | [5] 0.045 | [6] 0.043

SNAPC5 (UniProt O75971)
inactive: [1] 0.089 | [10] 0.08 | [7] -0.035 | [9] 0.066

SNX33 (UniProt Q8WV41)
inactive: [2] -0.276 | [4] -0.046 | [7] -0.01 | [9] 0.007

SMOX isoform 6 (UniProt Q9NWM0)
inactive: [3] 0.099 | [4] 0.048 | [8] -0.079

SNRNP25 (UniProt Q9BV90)
inactive: [2] -0.026 | [7] -0.078 | [9] -0.036

SNRPD2 (UniProt K7EJB5)
inactive: [2] -0.001 | [3] -0.057 | [10] -0.074 | [4] 0.054 | [5] -0.069 | [6] 0.047 | [7] 0.103 | [8] 0.025 | [9] 0.107

SMIM11A (UniProt P58511)
inactive: [10] 0.224 | [5] 0.357 | [6] 0.004 | [8] -0.131

SOX11 (UniProt P35716)
inactive: [10] 0.007 | [8] 0.124

SNAPC3 (UniProt Q92966)
inactive: [1] 0 | [3] 0.104 | [4] 0.263 | [5] -0.136 | [6] 0.123 | [7] -0.004 | [9] 0.071

SNX2 isoform 2 (UniProt O60749)
inactive: [2] 0.081 | [3] -0.035 | [10] -0.128 | [4] 0.512 | [5] -0.117 | [6] 0.189 | [7] -0.09 | [8] 0.09 | [9] -0.016

SMPDL3A (UniProt Q92484)
inactive: [10] -0.068 | [5] 0.005 | [6] 0.069 | [8] -0.251

SON isoform 6 (UniProt P18583)
inactive: [2] 0.014 | [7] -0.108 | [9] 0.059

SMC1B isoform 3 (UniProt Q8NDV3)
inactive: [2] 0.038 | [3] 0 | [10] 0.147 | [4] 0.028 | [5] 0.039 | [6] -0.03 | [7] 0.027 | [8] -0.03 | [9] 0.044

SNAPC4 (UniProt Q5SXM2)
inactive: [1] 0.014 | [10] -0.065 | [5] 0.036 | [6] 0.04 | [7] 0.09 | [9] 0.061

SPAG1 (UniProt Q07617)
inactive: [2] 0.071 | [10] -0.014 | [8] -0.03

SNRPA1 (UniProt H0YMA0)
inactive: [8] 0.027

SNX14 (UniProt Q9Y5W7)
inactive: [2] 0.296 | [3] -0.08 | [10] -0.011 | [4] 0.464 | [5] -0.048 | [6] 0.03 | [7] -0.028 | [8] 0.035 | [9] 0.064

SOSTDC1 isoform 2 (UniProt Q6X4U4)
inactive: [4] 0.271

SNAPC1 (UniProt Q16533)
inactive: [7] 0.113 | [9] -0.242

SOX12 (UniProt O15370)
inactive: [1] -0.207 | [10] -0.081 | [4] -0.19

SNIP1 (UniProt Q8TAD8)
inactive: [7] -0.024 | [9] -0.015

SNX10 (UniProt Q9Y5X0)
inactive: [2] -0.263 | [3] -0.039 | [4] -0.061

SNX25 (UniProt Q9H3E2)
inactive: [2] 0.068 | [3] 0.01 | [4] 0.086 | [5] -0.007 | [6] -0.044

SP2 (UniProt Q02086)
inactive: [4] 0.126 | [5] 0.063 | [6] -0.073 | [7] -0.14 | [9] -0.082

SMIM19 (UniProt Q96E16)
inactive: [2] 0.229

SOD3 (UniProt P08294)
inactive: [1] -0.058 | [10] -0.039 | [5] 0.207 | [6] -0.057 | [8] -0.109

SMYD3 (UniProt Q9H7B4)
inactive: [2] -0.122 | [3] -0.018 | [10] 0.036 | [4] 0.028 | [5] 0.022 | [6] 0.071 | [7] -0.044 | [8] 0 | [9] 0.034

SMPD1 (UniProt P17405)
inactive: [2] 0.001 | [3] 0.006 | [4] -0.01 | [7] -0.03 | [9] -0.081

Taken from the listing (3 entries):
SP3 (UniProt Q02447)
inactive: [1] 0.075 | [2] 0.054 | [3] 0.036 | [4] 0.136 | [5] 0.011 | [6] 0.003 | [7] 0.036 | [8] 0.022 | [9] -0.173

SMDT1 (UniProt Q9H4I9)
inactive: [1] -0.091 | [2] 0.042 | [3] -0.023 | [4] 0.046 | [8] 0.085

SOX7 isoform 2 (UniProt Q9BT81)
inactive: [1] 0.048 | [2] -0.259 | [3] 0.149 | [10] 0.102 | [7] -0.051 | [9] -0.082

Next part

SMIM13 (UniProt P0DJ93)
inactive: [3] 0.057

SMIM29 (UniProt Q86T20)
inactive: [8] 0.071

SNX13 (UniProt Q9Y5W8)
inactive: [2] -0.004 | [3] 0.049 | [4] 0.122

SNRNP35 isoform 2 (UniProt Q16560)
inactive: [1] -0.003 | [4] 0.067 | [7] -0.04 | [9] 0.066

SMARCC2 isoform 3 (UniProt Q8TAQ2)
inactive: [2] -0.024 | [4] -0.019 | [7] -0.078 | [8] 0.161 | [9] -0.097

SMARCD3 (UniProt Q6STE5)
inactive: [3] 0.16 | [4] 0.122
